Measured values: US20240058465A1
No constants are given. Whether binding was seen depends on the method and setting. Some results given as binding are weak or reduced against the parent protein; the word gives no strength.

Amino acid sequences for entries named in this document (tags omitted). Residues count along the entry.
UniProt Q01973, residues 30-403: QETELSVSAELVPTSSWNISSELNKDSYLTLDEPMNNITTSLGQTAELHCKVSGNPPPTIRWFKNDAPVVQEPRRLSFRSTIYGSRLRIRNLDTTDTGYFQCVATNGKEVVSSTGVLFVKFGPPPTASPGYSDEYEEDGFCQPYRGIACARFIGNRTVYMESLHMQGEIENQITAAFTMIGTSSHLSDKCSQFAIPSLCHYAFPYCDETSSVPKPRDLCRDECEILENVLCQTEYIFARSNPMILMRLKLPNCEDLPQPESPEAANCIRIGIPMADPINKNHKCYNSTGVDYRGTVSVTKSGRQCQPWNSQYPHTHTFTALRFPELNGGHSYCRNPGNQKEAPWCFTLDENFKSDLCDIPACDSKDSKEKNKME

B1: 1987-C05 HC co-expressed with hUCHT1-LC3 light chain (antibody, V domains shown)
VH: EVQLVESGGGLVQPGGSLRLSCAASGFNISDYDIHWVRQAPGKGLEWVGGIDPDDGSTDYADSVKGRFTISADTSKNTAYLQMNSLRAEDTAVYYCARDYGVFDYWGQGTLVTVSS
VL: DIQMTQSPSTLSASVGDRVTITCRASQDIRNYLNWYQQKPGKAPKLLIYYTSRLHSGVPSRFSGSGSGTEYTLTISSLQPDDFATYYCQQGNTLPWTFGGGTKVEIK
B2: 1987-C05 HC co-expressed with hSP34-LC3 light chain (antibody, V domains shown)
VH: B1 VH
VL: QTVVTQEPSLTVSPGGTVTLTCGSSTGAVTSGYYPNWFQQKPGQAPRGLIGGTKFLAPGTPARFSGSLLGGKAALTLSGVQPEDEAEYYCALWYSNRWVFGGGTQLTVTG
B3: 1944-A07 HC co-expressed with hUCHT1-LC3 light chain (antibody, V domains shown)
VH: EVQLVESGGGLVQPGGSLRLSCAASGFNITGYYIHWVRQAPGKGLEWVGYISPNSGSTYYADSVKGRFTISADTSKNTAYLQMNSLRAEDTAVYYCARDSRRYVRPFDYWGQGTLVTVSS
VL: B1 VL
B4: 1944-A07 HC co-expressed with hOKT3-LC1 light chain (antibody, V domains shown)
VH: B3 VH
VL: DIQMTQSPSSLSASVGDRVTITCSASSSVSYMNWYQQKPGKAPKRLIYDTSKLASGVPSRFSGSGSGTEYTLTISSLQPEDFATYYCQQWSSNPFTFGQGTKLEIK
B5: 1944-A07 HC co-expressed with hSP34-LC3 light chain (antibody, IgG1, V domains shown)
VH: B3 VH
VL: B2 VL
B6: 1944-A07 with aCD3 SP34 LC (antibody, V domains shown)
VH: B3 VH
VL: QAVVTQESALTTSPGETVTLTCRSSTGAVTTSNYANWVQEKPDHLFTGLIGGTNKRAPGVPARFSGSLIGDKAALTITGAQTEDEAIYFCALWYSNLWVFGGGTKLTVL

These binders were tested against ROR1 (recombinant protein coated on the ELISA plate, Example 11) (UniProt Q01973) (assay: ELISA, ROR1 coated on the plate).
For B1, the binding was “binds”.
B2 was tested, and the binding was “binds”.
With B3 the binding was “binds”.
With B4 the binding was “binds”.
B5 was tested, and the binding was “binds”.

These binders were tested against ROR1 (recombinant protein coated on the ELISA plate, Example 11) (UniProt Q01973) (assay: ELISA, ROR1 coated on the plate, HRP anti-human Fc detection).
For B1, the binding was “binds”.
B2 was tested, and the binding was “binds”.
B3 was tested, and the binding was “binds”.
For B4, the binding was “binds”.
In the case of B5, the binding is reported as “binds”.

Each binder was assayed against human ROR1 Frizzled domain (Fz, residues 165-305) with C-terminal HIS6 tag (human) (UniProt Q01973) (assay: ELISA on plate-coated ROR1 domains, column 'Domain binding by ELISA').
For B6, the binding was “binds”.

Each binder was assayed against ROR1 (recombinant protein coated on the ELISA plate, Example 11) (UniProt Q01973) (assay: ELISA: ROR1 coated on the plate, antibody titrated 3-fold from 5 ug/mL, HRP anti-human Fc, chemiluminescence (ELISA RLU)).
B1 was tested, and the binding was “binds”.
B2 was tested, and the binding was “binds”.
B3 was tested, and the binding was “binds”.
B4 was tested, and the binding was “binds”.
For B5, the binding was “binds”.
